# Counter-ions that a name gives are not always drawn. At least one structure is not confirmed: it was looked up by name or label, or the drawing left a doubt.
# Legend:
# Format in all cases: physicochemical
# [1] = Dehydration profile by thermographic analysis (TGA); details: by 63° C., dry nitrogen, 5° C./minute from 25° C.; corresponds to loss of 3 molecules of water
# Method: Thermographic analysis (TGA) curves were generated for the anhydrate and trihydrate using a Perkin Elmer TGA-7. Three to five milligram samples were weighed into aluminum sample pans and run under dry nitrogen at 5° C./minute from 25° C. to 250° C. The data were exported to Excel to enable plotting.
# [2] = 36-month stability of the trihydrate form in stability chambers (HPLC purity, water content); details: 25° C./60% RH, up to 36 months
# [3] = Water vapor sorption isotherm / critical relative humidity; details: for Re-equilibrium time of dehydration/rehydration: 0% RH and 55% RH as humidity drivers
smiles,measurement,setting,value
"COc1cc(N)c(Cl)cc1C(=O)N[C@@H]1CCN(CCCCCC(=O)O[C@H]2CN3CCC2CC3)C[C@@H]1OC [Compound 1, (3S, 4R, 3′R)-6-[4-(4-amino-5-chloro-2-methoxy-benzoylamino)-3-methoxy-piperidin-1-yl]-hexanoic acid 1-azabicyclo[2.2.2]oct-3′-yl ester di-hydrochloride salt]",% loss (TGA mass loss),[1],8.2%
same,Change of water content of the API,[2],did not change
same,Re-equilibrium time of dehydration/rehydration,[3]; 1 mm layer,within minutes
same,Re-equilibrium time of dehydration/rehydration,[3]; 7 mm layer,hours
same,Deliquescence,"[3]; 100% RH, temperatures of 40° C. and above",deliquescence was observed
